# Test results as given in the supplement of paper PMC4635364.
# Counter-ions that a name gives are not always drawn. This is one part of the list. This data set is noisy: repeats of one test often differ as much as different tests do.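 Cells: ReNCell VM human fetal ventral-midbrain neural progenitors, differentiated mitogen-free. Blinded raters compared doublecortin-stained (early neurons) or tyrosine hydroxylase-stained (dopaminergic neurons) images with untreated wells, where 0 means no change. After repeats and both raters were averaged, compounds scoring 2 or above became hits for retesting.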
# How the values were obtained:
# ReNCell VM [1] = test: neuronal differentiation score (DCX+ cell fraction vs untreated, manual image score) (score (-3 to 3)); higher = more neuronal differentiation; conditions: 2 uM, 2 weeks
# ReNCell VM [2] = test: dopaminergic neuron differentiation score (TH+ cell fraction vs untreated, manual image score) (score (0 to 3)); higher = more TH+ dopaminergic neuron differentiation; conditions: 2 uM, 4 weeks, BDNF 10 ng/ml + GDNF 10 ng/ml
smiles,measurement,setting,value
CC1=C(CCC(=O)O)c2cc3[nH]c(cc4nc(cc5[nH]c(cc1n2)c(C)c5C(C)O)C(C)=C4C(C)O)c(C)c3CCC(=O)O (configuration not stated),neuronal differentiation score,ReNCell VM [1]; library: Spectrum,inactive: 0
same,dopaminergic neuron differentiation score,ReNCell VM [2]; library: Spectrum,inactive: 0
CC(=N)NCCCC[C@H](N)C(=O)O [L-NIL hydrochloride],neuronal differentiation score,ReNCell VM [1]; library: Tocriscreen,inactive: 0
same,dopaminergic neuron differentiation score,ReNCell VM [2]; library: Tocriscreen,inactive: 0
NC(=O)C(c1ccccc1)(c1ccccc1)[C@@H]1CCN(CCc2ccc3c(c2)CCO3)C1,neuronal differentiation score,ReNCell VM [1]; library: Spectrum,inactive: 0
same,dopaminergic neuron differentiation score,ReNCell VM [2]; library: Spectrum,inactive: 0
CNCCCN1c2ccccc2CCc2ccccc21,neuronal differentiation score,ReNCell VM [1]; library: Spectrum,inactive: 0
same,dopaminergic neuron differentiation score,ReNCell VM [2]; library: Spectrum,inactive: 0
N#C/C(=C\c1ccc(O)c(O)c1)C(=O)NCCc1ccccc1 [Tyrphostin AG 698],neuronal differentiation score,ReNCell VM [1]; library: LOPAC,inactive: 0
same,dopaminergic neuron differentiation score,ReNCell VM [2]; library: LOPAC,inactive: 1
CC[C@@H]1Cn2c(c3nc(-c4ccccc4)nc-3n(C)c2=O)N1,neuronal differentiation score,ReNCell VM [1]; library: Tocriscreen,inactive: 0
same,dopaminergic neuron differentiation score,ReNCell VM [2]; library: Tocriscreen,inactive: 0
CCOC(=O)c1ccc(OC(=O)CCCCCNC(=N)N)cc1 [Gabexate mesylate],neuronal differentiation score,ReNCell VM [1]; library: Tocriscreen,inactive: 0
same,dopaminergic neuron differentiation score,ReNCell VM [2]; library: Tocriscreen,inactive: 0
CCC[C@@H]1C[C@@H](C(=O)N[C@@H]([C@H]2O[C@H](SC)[C@H](O)[C@@H](O)[C@H]2O)[C@@H](C)O)N(C)C1 [Lincomycin hydrochloride],neuronal differentiation score,ReNCell VM [1]; library: Prestwick,inactive: 0
same,dopaminergic neuron differentiation score,ReNCell VM [2]; library: Prestwick,inactive: 0
COc1ccc(-c2cc(=O)c3c(O)cc(O[C@@H]4O[C@H](CO[C@@H]5O[C@@H](C)[C@H](O)[C@@H](O)[C@H]5O)[C@@H](O)[C@H](O)[C@H]4O)cc3o2)cc1O [Diosmin],neuronal differentiation score,ReNCell VM [1]; library: Prestwick,inactive: 0
same,dopaminergic neuron differentiation score,ReNCell VM [2]; library: Prestwick,inactive: 0
CC(C)(CO)C(O)C(=O)NCCCO (configuration not stated) [Panthenol (D)],neuronal differentiation score,ReNCell VM [1]; library: Prestwick,inactive: 0
same,dopaminergic neuron differentiation score,ReNCell VM [2]; library: Prestwick,inactive: 0
COC(=O)C[C@H]1C(C)(C)C(=O)[C@@H]2CC3=C4CC(=O)O[C@@H](c5ccoc5)[C@]4(C)CC[C@@H]3[C@@]1(C)C2=O,neuronal differentiation score,ReNCell VM [1]; library: Spectrum,inactive: 0
same,dopaminergic neuron differentiation score,ReNCell VM [2]; library: Spectrum,inactive: 0
CN1C(=O)CC[C@H]1c1cccnc1,neuronal differentiation score,ReNCell VM [1]; library: Spectrum,inactive: 0
same,dopaminergic neuron differentiation score,ReNCell VM [2]; library: Spectrum,inactive: 0
CCOC(=O)C1=C[C@]2(CC)CCCN3CCc4c(n1c1ccccc41)[C@@H]32,neuronal differentiation score,ReNCell VM [1]; library: Spectrum,inactive: 0
same,dopaminergic neuron differentiation score,ReNCell VM [2]; library: Spectrum,inactive: 0
NC(=O)N1c2ccccc2CC(=O)c2ccccc21 [Oxcarbazepine],neuronal differentiation score,ReNCell VM [1]; library: Prestwick,inactive: 0
same,dopaminergic neuron differentiation score,ReNCell VM [2]; library: Prestwick,inactive: 0
O=Cc1ccccc1O[C@@H]1O[C@H](CO)[C@@H](O)[C@H](O)[C@H]1O,neuronal differentiation score,ReNCell VM [1]; library: Spectrum,inactive: 0
same,dopaminergic neuron differentiation score,ReNCell VM [2]; library: Spectrum,inactive: 0
Cc1onc(-c2c(Cl)cccc2Cl)c1C(=O)N[C@@H]1C(=O)N2[C@@H]1SC(C)(C)[C@@H]2C(=O)O [Dicloxacillin sodium salt hydrate],neuronal differentiation score,ReNCell VM [1]; library: Prestwick,inactive: 0
same,dopaminergic neuron differentiation score,ReNCell VM [2]; library: Prestwick,inactive: 0
OC[C@@H](O)[C@@H](O)[C@H](O)[C@@H](O)CO,neuronal differentiation score,ReNCell VM [1]; library: Spectrum,inactive: 0
same,dopaminergic neuron differentiation score,ReNCell VM [2]; library: Spectrum,inactive: 0
"C[C@]12CC[C@@H](O)C[C@H]1CCc1ccccc12 [3alpha-HYDROXY-4,4-BISNOR-8,11,13-PODOCARPATRIENE]",neuronal differentiation score,ReNCell VM [1]; library: Spectrum,inactive: 0
same,dopaminergic neuron differentiation score,ReNCell VM [2]; library: Spectrum,inactive: 0
Cc1cccc(CCN2CCC(C(=O)c3ccc(NS(C)(=O)=O)cc3)CC2)n1 [E-4031 dihydrochloride],neuronal differentiation score,ReNCell VM [1]; library: Tocriscreen,inactive: 0
same,dopaminergic neuron differentiation score,ReNCell VM [2]; library: Tocriscreen,inactive: 0
COc1cc(/C=C(\C#N)C(N)=O)cc(CSc2nc3ccccc3s2)c1O,neuronal differentiation score,ReNCell VM [1]; library: Tocriscreen,inactive: 0
same,dopaminergic neuron differentiation score,ReNCell VM [2]; library: Tocriscreen,inactive: 0
CC1=C(C(=O)O)N2C(=O)[C@@H](NC(=O)[C@H](N)c3ccc(O)cc3)[C@H]2SC1,neuronal differentiation score,ReNCell VM [1]; library: Spectrum,inactive: 1
same,dopaminergic neuron differentiation score,ReNCell VM [2]; library: Spectrum,inactive: 0
Clc1cnccn1 [2-Chloropyrazine],neuronal differentiation score,ReNCell VM [1]; library: Prestwick,inactive: 0
same,dopaminergic neuron differentiation score,ReNCell VM [2]; library: Prestwick,inactive: 0
N[C@@H]1CONC1=O,neuronal differentiation score,ReNCell VM [1]; library: Spectrum,inactive: 1
same,dopaminergic neuron differentiation score,ReNCell VM [2]; library: Spectrum,inactive: 0
O=C(O)c1ccccc1Nc1ccccc1,neuronal differentiation score,ReNCell VM [1]; library: Spectrum,inactive: 0
same,dopaminergic neuron differentiation score,ReNCell VM [2]; library: Spectrum,inactive: 0
CN1CCC(=C2c3ccccc3C=Cc3ccccc32)CC1,neuronal differentiation score,ReNCell VM [1]; library: Spectrum,inactive: 0
same,dopaminergic neuron differentiation score,ReNCell VM [2]; library: Spectrum,inactive: 0
C=C(C)[C@@H]1CC=C(C(=O)O)CC1,neuronal differentiation score,ReNCell VM [1]; library: Spectrum,inactive: 0
same,dopaminergic neuron differentiation score,ReNCell VM [2]; library: Spectrum,inactive: 0

# Fetched one by one from the list above:
smiles,measurement,setting,value
Cc1onc(-c2c(Cl)cccc2Cl)c1C(=O)N[C@@H]1C(=O)N2[C@@H]1SC(C)(C)[C@@H]2C(=O)O [Dicloxacillin sodium salt hydrate],neuronal differentiation score,ReNCell VM [1]; library: Prestwick,inactive: 0
CC(C)(CO)C(O)C(=O)NCCCO (configuration not stated) [Panthenol (D)],dopaminergic neuron differentiation score,ReNCell VM [2]; library: Prestwick,inactive: 0

# An excerpt of these results, with bars between the fields:
smiles | measurement | setting | value
NC(=O)C(c1ccccc1)(c1ccccc1)[C@@H]1CCN(CCc2ccc3c(c2)CCO3)C1 | neuronal differentiation score | ReNCell VM [1]; library: Spectrum | inactive: 0
same | dopaminergic neuron differentiation score | ReNCell VM [2]; library: Spectrum | inactive: 0
